Measured values from PMC10176696.
No constants are given. Whether binding was seen depends on the method and setting. Binding seen in cells or lysates may run through a third protein. Some binding calls cover weakened binding; strength is not graded here. For some of these results: Tags and fused reporters may be left off the sequences shown.

T1: Myc-REST (UniProt Q13127)
T1 sequence: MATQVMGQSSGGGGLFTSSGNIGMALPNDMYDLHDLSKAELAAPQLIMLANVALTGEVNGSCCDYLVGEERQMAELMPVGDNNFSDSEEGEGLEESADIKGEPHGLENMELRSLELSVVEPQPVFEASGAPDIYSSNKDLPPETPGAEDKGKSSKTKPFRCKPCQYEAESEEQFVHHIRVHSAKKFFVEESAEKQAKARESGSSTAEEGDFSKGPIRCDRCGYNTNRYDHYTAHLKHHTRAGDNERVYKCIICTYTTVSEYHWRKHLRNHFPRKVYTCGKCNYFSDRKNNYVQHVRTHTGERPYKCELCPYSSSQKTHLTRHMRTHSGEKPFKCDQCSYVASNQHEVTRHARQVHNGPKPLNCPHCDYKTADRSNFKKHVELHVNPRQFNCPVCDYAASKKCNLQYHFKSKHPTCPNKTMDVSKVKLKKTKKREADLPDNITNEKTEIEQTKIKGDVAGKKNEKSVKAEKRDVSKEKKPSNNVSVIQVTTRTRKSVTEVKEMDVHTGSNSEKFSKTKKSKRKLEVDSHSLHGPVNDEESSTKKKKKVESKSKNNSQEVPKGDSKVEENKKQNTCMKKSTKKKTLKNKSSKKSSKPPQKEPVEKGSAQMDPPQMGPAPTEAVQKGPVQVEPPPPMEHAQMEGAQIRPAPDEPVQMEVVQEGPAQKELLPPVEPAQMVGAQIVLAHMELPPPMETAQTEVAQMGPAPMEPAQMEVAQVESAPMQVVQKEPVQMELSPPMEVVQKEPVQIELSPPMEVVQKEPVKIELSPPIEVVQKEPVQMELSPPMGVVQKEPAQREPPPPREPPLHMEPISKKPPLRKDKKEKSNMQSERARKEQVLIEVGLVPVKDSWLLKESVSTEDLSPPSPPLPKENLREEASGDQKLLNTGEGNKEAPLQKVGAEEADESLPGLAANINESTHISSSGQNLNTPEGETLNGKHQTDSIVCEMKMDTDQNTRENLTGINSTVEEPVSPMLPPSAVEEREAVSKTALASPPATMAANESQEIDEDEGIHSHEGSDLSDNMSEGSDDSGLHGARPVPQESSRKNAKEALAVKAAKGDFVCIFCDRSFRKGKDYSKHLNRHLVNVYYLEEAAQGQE

T2: Flag-USP3 (UniProt Q9Y6I4)
T2 sequence: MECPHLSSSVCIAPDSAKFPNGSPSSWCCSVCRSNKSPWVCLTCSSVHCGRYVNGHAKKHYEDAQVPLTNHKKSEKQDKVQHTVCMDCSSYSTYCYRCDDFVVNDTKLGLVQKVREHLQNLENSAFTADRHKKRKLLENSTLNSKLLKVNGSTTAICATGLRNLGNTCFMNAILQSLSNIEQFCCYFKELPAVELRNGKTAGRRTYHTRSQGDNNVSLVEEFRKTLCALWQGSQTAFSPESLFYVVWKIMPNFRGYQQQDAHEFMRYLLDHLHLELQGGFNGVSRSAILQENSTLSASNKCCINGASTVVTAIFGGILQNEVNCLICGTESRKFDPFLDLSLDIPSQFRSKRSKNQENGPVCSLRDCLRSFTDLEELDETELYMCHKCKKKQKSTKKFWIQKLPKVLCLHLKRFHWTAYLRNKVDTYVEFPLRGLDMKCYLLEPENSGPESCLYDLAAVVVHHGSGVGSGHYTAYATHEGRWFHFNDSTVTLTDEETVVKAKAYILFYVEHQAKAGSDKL

T3: endogenous USP3 (human (endogenous in SH-SY5Y)) (UniProt Q9Y6I4)
T3 sequence: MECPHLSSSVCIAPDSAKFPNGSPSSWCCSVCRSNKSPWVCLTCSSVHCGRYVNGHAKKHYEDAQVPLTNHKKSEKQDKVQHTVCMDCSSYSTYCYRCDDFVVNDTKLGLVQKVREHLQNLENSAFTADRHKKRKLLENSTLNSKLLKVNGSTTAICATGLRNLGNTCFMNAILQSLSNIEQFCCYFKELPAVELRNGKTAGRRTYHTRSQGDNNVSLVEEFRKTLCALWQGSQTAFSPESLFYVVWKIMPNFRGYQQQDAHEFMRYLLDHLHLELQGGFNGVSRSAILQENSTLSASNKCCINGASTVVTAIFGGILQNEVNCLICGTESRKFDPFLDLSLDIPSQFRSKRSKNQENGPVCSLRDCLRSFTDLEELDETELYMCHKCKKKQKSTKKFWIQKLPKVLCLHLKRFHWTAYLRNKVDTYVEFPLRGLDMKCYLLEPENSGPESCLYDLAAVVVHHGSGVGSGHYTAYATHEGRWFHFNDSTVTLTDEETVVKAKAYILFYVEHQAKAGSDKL


Assays:
Myc-REST = target: T1, Myc-REST; assay: co-IP; HEK293 cells transfected with Flag-USP3 or Flag-USP19 and Myc-REST; lysates immunoprecipitated with anti-Flag or anti-Myc antibody, western blot; IP lysis buffer 25 mM Tris-HCl pH 7.4, 150 mM NaCl, 1 mM EDTA, 1% NP-40, 5% glycerol; 4 °C overnight
Flag-USP3 = target: T2, Flag-USP3; assay: as above
[1] = target: T3, endogenous USP3 (human (endogenous in SH-SY5Y)); assay: co-IP; endogenous proteins in SH-SY5Y lysate; immunoprecipitated with antibodies against USP3 or REST, western blot; IP lysis buffer 25 mM Tris-HCl pH 7.4, 150 mM NaCl, 1 mM EDTA, 1% NP-40, 5% glycerol; 4 °C overnight

| binding (Myc-REST) | Binder | other results |
| --- | --- | --- |
| no binding | Flag-USP19 (enzyme, UniProt O94966 1-1318) MSGGASATGPRRGPPGLEDTTSKKKQKDRANQESKDGDPRKETGSRYVAQAGLEPLASGDPSASASHAAGITGSRHRTRLFFPSSSGSASTPQEEQTKEGACEDPHDLLATPTPELLLDWRQSAEEVIVKLRVGVGPLQLEDVDAAFTDTDCVVRFAGGQQWGGVFYAEIKSSCAKVQTRKGSLLHLTLPKKVPMLTWPSLLVEADEQLCIPPLNSQTCLLGSEENLAPLAGEKAVPPGNDPVSPAMVRSRNPGKDDCAKEEMAVAADAATLVDEPESMVNLAFVKNDSYEKGPDSVVVHVYVKEICRDTSRVLFREQDFTLIFQTRDGNFLRLHPGCGPHTTFRWQVKLRNLIEPEQCTFCFTASRIDICLRKRQSQRWGGLEAPAARVGGAKVAVPTGPTPLDSTPPGGAPHPLTGQEEARAVEKDKSKARSEDTGLDSVATRTPMEHVTPKPETHLASPKPTCMVPPMPHSPVSGDSVEEEEEEEKKVCLPGFTGLVNLGNTCFMNSVIQSLSNTRELRDFFHDRSFEAEINYNNPLGTGGRLAIGFAVLLRALWKGTHHAFQPSKLKAIVASKASQFTGYAQHDAQEFMAFLLDGLHEDLNRIQNKPYTETVDSDGRPDEVVAEEAWQRHKMRNDSFIVDLFQGQYKSKLVCPVCAKVSITFDPFLYLPVPLPQKQKVLPVFYFAREPHSKPIKFLVSVSKENSTASEVLDSLSQSVHVKPENLRLAEVIKNRFHRVFLPSHSLDTVSPSDTLLCFELLSSELAKERVVVLEVQQRPQVPSVPISKCAACQRKQQSEDEKLKRCTRCYRVGYCNQLCQKTHWPDHKGLCRPENIGYPFLVSVPASRLTYARLAQLLEGYARYSVSVFQPPFQPGRMALESQSPGCTTLLSTGSLEAGDSERDPIQPPELQLVTPMAEGDTGLPRVWAAPDRGPVPSTSGISSEMLASGPIEVGSLPAGERVSRPEAAVPGYQHPSEAMNAHTPQFFIYKIDSSNREQRLEDKGDTPLELGDDCSLALVWRNNERLQEFVLVASKELECAEDPGSAGEAARAGHFTLDQCLNLFTRPEVLAPEEAWYCPQCKQHREASKQLLLWRLPNVLIVQLKRFSFRSFIWRDKINDLVEFPVRNLDLSKFCIGQKEEQLPSYDLYAVINHYGGMIGGHYTACARLPNDRSSQRSDVGWRLFDDSTVTTVDESQVVTRYAYVLFYRRRNSPVERPPRAGHSEHHPDLGPAAEAAASQASRIWQELEAEEEPVPEGSGPLGPWGPQDWVGPLPRGPTTPDEGCLRYFVLGTVAALVALVLNVFYPLVSQSRWR |  |
|  | Myc-REST (protein, UniProt Q13127 1-1097) MATQVMGQSSGGGGLFTSSGNIGMALPNDMYDLHDLSKAELAAPQLIMLANVALTGEVNGSCCDYLVGEERQMAELMPVGDNNFSDSEEGEGLEESADIKGEPHGLENMELRSLELSVVEPQPVFEASGAPDIYSSNKDLPPETPGAEDKGKSSKTKPFRCKPCQYEAESEEQFVHHIRVHSAKKFFVEESAEKQAKARESGSSTAEEGDFSKGPIRCDRCGYNTNRYDHYTAHLKHHTRAGDNERVYKCIICTYTTVSEYHWRKHLRNHFPRKVYTCGKCNYFSDRKNNYVQHVRTHTGERPYKCELCPYSSSQKTHLTRHMRTHSGEKPFKCDQCSYVASNQHEVTRHARQVHNGPKPLNCPHCDYKTADRSNFKKHVELHVNPRQFNCPVCDYAASKKCNLQYHFKSKHPTCPNKTMDVSKVKLKKTKKREADLPDNITNEKTEIEQTKIKGDVAGKKNEKSVKAEKRDVSKEKKPSNNVSVIQVTTRTRKSVTEVKEMDVHTGSNSEKFSKTKKSKRKLEVDSHSLHGPVNDEESSTKKKKKVESKSKNNSQEVPKGDSKVEENKKQNTCMKKSTKKKTLKNKSSKKSSKPPQKEPVEKGSAQMDPPQMGPAPTEAVQKGPVQVEPPPPMEHAQMEGAQIRPAPDEPVQMEVVQEGPAQKELLPPVEPAQMVGAQIVLAHMELPPPMETAQTEVAQMGPAPMEPAQMEVAQVESAPMQVVQKEPVQMELSPPMEVVQKEPVQIELSPPMEVVQKEPVKIELSPPIEVVQKEPVQMELSPPMGVVQKEPAQREPPPPREPPLHMEPISKKPPLRKDKKEKSNMQSERARKEQVLIEVGLVPVKDSWLLKESVSTEDLSPPSPPLPKENLREEASGDQKLLNTGEGNKEAPLQKVGAEEADESLPGLAANINESTHISSSGQNLNTPEGETLNGKHQTDSIVCEMKMDTDQNTRENLTGINSTVEEPVSPMLPPSAVEEREAVSKTALASPPATMAANESQEIDEDEGIHSHEGSDLSDNMSEGSDDSGLHGARPVPQESSRKNAKEALAVKAAKGDFVCIFCDRSFRKGKDYSKHLNRHLVNVYYLEEAAQGQE | binding (Flag-USP3): binds |
|  | endogenous REST (protein, UniProt Q13127 1-1097) MATQVMGQSSGGGGLFTSSGNIGMALPNDMYDLHDLSKAELAAPQLIMLANVALTGEVNGSCCDYLVGEERQMAELMPVGDNNFSDSEEGEGLEESADIKGEPHGLENMELRSLELSVVEPQPVFEASGAPDIYSSNKDLPPETPGAEDKGKSSKTKPFRCKPCQYEAESEEQFVHHIRVHSAKKFFVEESAEKQAKARESGSSTAEEGDFSKGPIRCDRCGYNTNRYDHYTAHLKHHTRAGDNERVYKCIICTYTTVSEYHWRKHLRNHFPRKVYTCGKCNYFSDRKNNYVQHVRTHTGERPYKCELCPYSSSQKTHLTRHMRTHSGEKPFKCDQCSYVASNQHEVTRHARQVHNGPKPLNCPHCDYKTADRSNFKKHVELHVNPRQFNCPVCDYAASKKCNLQYHFKSKHPTCPNKTMDVSKVKLKKTKKREADLPDNITNEKTEIEQTKIKGDVAGKKNEKSVKAEKRDVSKEKKPSNNVSVIQVTTRTRKSVTEVKEMDVHTGSNSEKFSKTKKSKRKLEVDSHSLHGPVNDEESSTKKKKKVESKSKNNSQEVPKGDSKVEENKKQNTCMKKSTKKKTLKNKSSKKSSKPPQKEPVEKGSAQMDPPQMGPAPTEAVQKGPVQVEPPPPMEHAQMEGAQIRPAPDEPVQMEVVQEGPAQKELLPPVEPAQMVGAQIVLAHMELPPPMETAQTEVAQMGPAPMEPAQMEVAQVESAPMQVVQKEPVQMELSPPMEVVQKEPVQIELSPPMEVVQKEPVKIELSPPIEVVQKEPVQMELSPPMGVVQKEPAQREPPPPREPPLHMEPISKKPPLRKDKKEKSNMQSERARKEQVLIEVGLVPVKDSWLLKESVSTEDLSPPSPPLPKENLREEASGDQKLLNTGEGNKEAPLQKVGAEEADESLPGLAANINESTHISSSGQNLNTPEGETLNGKHQTDSIVCEMKMDTDQNTRENLTGINSTVEEPVSPMLPPSAVEEREAVSKTALASPPATMAANESQEIDEDEGIHSHEGSDLSDNMSEGSDDSGLHGARPVPQESSRKNAKEALAVKAAKGDFVCIFCDRSFRKGKDYSKHLNRHLVNVYYLEEAAQGQE | binding [1]: binds |
| binds | Flag-USP3 (enzyme, UniProt Q9Y6I4 1-520) MECPHLSSSVCIAPDSAKFPNGSPSSWCCSVCRSNKSPWVCLTCSSVHCGRYVNGHAKKHYEDAQVPLTNHKKSEKQDKVQHTVCMDCSSYSTYCYRCDDFVVNDTKLGLVQKVREHLQNLENSAFTADRHKKRKLLENSTLNSKLLKVNGSTTAICATGLRNLGNTCFMNAILQSLSNIEQFCCYFKELPAVELRNGKTAGRRTYHTRSQGDNNVSLVEEFRKTLCALWQGSQTAFSPESLFYVVWKIMPNFRGYQQQDAHEFMRYLLDHLHLELQGGFNGVSRSAILQENSTLSASNKCCINGASTVVTAIFGGILQNEVNCLICGTESRKFDPFLDLSLDIPSQFRSKRSKNQENGPVCSLRDCLRSFTDLEELDETELYMCHKCKKKQKSTKKFWIQKLPKVLCLHLKRFHWTAYLRNKVDTYVEFPLRGLDMKCYLLEPENSGPESCLYDLAAVVVHHGSGVGSGHYTAYATHEGRWFHFNDSTVTLTDEETVVKAKAYILFYVEHQAKAGSDKL |  |
